Source: the supplement of paper PMC12067093, “Discovery and optimisation of a covalent ligand for TRIM25 and its application to targeted protein ubiquitination” (Chemical Science, 2025)
The other results are listed elsewhere or left out.

Protein sequences, listed by entry. Tags and fused reporters are not part of them. Lines headed by an entry give the natural chain unless they say otherwise; changes in a name come on top.
UniProt Q9NZT2: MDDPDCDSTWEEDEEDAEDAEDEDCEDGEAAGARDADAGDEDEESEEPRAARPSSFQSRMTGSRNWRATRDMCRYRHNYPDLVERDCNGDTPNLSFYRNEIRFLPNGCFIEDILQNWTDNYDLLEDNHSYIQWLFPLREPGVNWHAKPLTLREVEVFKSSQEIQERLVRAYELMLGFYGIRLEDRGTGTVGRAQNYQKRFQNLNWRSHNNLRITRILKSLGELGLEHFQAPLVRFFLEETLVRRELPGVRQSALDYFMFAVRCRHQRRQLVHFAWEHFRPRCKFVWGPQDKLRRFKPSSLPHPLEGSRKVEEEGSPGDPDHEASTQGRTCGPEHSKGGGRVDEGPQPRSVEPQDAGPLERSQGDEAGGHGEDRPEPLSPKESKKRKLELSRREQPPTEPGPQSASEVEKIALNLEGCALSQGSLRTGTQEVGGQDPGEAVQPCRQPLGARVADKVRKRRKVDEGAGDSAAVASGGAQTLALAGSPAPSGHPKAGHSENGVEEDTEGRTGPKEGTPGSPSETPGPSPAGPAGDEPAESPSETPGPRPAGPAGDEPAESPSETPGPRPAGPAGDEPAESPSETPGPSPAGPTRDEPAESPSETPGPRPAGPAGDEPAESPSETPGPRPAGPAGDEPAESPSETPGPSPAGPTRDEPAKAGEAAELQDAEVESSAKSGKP
UniProt P35658: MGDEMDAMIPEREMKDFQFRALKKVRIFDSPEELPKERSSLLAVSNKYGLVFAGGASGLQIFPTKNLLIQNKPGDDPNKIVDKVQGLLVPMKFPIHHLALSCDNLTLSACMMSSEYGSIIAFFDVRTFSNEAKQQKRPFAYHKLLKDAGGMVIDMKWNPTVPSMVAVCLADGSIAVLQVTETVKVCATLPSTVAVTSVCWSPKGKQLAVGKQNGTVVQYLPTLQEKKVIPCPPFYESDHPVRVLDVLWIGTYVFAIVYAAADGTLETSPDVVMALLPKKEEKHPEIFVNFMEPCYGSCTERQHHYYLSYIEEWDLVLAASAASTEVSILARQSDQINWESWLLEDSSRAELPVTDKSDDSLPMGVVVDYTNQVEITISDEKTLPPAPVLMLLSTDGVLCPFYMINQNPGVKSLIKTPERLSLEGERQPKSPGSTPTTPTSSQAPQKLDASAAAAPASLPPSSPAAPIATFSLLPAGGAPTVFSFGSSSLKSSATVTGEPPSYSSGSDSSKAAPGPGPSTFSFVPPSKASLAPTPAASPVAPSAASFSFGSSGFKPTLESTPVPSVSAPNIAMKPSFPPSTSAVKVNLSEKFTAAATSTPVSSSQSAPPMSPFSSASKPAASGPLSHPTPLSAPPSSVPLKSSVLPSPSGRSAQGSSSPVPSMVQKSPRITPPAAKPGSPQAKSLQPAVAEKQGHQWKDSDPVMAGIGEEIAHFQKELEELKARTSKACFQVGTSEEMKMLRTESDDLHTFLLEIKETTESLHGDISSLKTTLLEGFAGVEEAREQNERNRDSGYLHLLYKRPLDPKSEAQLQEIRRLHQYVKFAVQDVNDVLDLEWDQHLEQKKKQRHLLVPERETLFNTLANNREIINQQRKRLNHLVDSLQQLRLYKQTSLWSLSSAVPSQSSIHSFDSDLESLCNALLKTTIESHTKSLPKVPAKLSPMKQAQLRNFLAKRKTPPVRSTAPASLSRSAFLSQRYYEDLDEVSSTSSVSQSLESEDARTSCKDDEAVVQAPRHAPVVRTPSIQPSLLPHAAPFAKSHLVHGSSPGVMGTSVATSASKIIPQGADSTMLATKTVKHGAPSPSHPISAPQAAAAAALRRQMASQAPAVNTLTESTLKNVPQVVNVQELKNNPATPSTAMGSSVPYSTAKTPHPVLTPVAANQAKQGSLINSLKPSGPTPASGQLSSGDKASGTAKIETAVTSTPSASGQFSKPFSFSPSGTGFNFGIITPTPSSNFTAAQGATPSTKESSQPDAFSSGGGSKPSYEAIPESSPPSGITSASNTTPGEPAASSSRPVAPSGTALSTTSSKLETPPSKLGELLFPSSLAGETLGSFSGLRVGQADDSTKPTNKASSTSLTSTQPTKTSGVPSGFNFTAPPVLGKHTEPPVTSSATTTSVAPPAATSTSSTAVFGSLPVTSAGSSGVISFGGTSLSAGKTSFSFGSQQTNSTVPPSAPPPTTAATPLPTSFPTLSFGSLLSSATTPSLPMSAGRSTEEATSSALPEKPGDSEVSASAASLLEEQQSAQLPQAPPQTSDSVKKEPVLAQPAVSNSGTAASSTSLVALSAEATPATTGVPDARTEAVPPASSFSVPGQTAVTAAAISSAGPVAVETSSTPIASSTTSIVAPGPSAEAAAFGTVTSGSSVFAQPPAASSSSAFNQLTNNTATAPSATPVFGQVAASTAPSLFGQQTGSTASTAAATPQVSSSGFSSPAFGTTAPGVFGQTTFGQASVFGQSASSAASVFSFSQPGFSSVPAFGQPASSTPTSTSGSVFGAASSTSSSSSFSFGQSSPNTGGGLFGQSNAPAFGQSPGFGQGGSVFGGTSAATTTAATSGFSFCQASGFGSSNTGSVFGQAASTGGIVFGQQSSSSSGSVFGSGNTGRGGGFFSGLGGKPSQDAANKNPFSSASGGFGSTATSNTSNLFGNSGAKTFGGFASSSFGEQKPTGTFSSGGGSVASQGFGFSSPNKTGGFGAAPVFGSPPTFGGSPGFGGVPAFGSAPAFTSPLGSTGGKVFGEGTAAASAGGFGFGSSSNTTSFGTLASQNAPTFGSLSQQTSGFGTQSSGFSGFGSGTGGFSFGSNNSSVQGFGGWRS
UniProt O60502: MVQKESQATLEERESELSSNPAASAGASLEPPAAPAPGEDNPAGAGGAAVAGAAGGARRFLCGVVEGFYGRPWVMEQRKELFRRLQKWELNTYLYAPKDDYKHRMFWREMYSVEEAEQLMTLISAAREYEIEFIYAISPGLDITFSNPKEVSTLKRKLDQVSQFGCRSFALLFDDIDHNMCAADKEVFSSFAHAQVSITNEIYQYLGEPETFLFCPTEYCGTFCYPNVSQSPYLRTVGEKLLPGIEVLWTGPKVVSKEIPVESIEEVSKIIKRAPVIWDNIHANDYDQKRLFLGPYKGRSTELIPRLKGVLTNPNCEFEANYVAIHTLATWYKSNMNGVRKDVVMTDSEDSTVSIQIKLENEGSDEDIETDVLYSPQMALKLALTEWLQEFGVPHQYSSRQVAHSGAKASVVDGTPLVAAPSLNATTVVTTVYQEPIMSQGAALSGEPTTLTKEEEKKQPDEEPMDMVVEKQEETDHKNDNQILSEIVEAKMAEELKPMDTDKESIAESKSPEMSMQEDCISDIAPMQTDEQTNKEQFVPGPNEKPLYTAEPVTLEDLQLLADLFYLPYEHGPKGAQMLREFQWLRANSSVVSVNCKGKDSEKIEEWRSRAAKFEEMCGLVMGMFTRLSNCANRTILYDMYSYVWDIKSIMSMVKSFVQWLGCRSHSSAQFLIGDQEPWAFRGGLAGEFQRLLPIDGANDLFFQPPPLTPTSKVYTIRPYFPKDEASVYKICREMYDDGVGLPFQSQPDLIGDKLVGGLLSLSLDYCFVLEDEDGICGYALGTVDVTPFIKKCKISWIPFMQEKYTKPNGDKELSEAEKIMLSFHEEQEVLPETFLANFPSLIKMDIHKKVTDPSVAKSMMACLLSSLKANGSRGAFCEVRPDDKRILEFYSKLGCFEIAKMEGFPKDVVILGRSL
UniProt Q56VL3: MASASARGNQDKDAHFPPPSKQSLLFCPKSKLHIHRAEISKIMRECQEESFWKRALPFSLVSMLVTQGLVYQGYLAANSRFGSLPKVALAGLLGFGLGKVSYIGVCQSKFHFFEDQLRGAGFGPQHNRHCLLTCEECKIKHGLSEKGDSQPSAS
UniProt Q5TFE4: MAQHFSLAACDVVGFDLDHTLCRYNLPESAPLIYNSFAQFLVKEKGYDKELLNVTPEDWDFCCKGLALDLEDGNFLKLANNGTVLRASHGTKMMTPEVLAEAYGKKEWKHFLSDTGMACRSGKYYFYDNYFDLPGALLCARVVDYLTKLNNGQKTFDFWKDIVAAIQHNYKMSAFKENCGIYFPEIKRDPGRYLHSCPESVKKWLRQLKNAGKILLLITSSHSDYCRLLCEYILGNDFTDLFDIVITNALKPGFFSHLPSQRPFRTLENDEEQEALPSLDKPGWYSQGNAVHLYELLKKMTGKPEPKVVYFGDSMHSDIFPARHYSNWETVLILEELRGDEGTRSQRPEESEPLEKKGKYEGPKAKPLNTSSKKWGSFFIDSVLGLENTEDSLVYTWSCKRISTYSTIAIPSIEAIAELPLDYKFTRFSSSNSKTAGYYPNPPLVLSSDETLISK
UniProt Q9BSD7: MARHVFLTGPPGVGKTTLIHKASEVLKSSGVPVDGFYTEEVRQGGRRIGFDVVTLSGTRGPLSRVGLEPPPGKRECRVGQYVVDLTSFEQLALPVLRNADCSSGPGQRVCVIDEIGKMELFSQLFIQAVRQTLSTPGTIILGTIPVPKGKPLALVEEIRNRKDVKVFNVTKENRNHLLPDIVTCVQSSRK
UniProt Q14980: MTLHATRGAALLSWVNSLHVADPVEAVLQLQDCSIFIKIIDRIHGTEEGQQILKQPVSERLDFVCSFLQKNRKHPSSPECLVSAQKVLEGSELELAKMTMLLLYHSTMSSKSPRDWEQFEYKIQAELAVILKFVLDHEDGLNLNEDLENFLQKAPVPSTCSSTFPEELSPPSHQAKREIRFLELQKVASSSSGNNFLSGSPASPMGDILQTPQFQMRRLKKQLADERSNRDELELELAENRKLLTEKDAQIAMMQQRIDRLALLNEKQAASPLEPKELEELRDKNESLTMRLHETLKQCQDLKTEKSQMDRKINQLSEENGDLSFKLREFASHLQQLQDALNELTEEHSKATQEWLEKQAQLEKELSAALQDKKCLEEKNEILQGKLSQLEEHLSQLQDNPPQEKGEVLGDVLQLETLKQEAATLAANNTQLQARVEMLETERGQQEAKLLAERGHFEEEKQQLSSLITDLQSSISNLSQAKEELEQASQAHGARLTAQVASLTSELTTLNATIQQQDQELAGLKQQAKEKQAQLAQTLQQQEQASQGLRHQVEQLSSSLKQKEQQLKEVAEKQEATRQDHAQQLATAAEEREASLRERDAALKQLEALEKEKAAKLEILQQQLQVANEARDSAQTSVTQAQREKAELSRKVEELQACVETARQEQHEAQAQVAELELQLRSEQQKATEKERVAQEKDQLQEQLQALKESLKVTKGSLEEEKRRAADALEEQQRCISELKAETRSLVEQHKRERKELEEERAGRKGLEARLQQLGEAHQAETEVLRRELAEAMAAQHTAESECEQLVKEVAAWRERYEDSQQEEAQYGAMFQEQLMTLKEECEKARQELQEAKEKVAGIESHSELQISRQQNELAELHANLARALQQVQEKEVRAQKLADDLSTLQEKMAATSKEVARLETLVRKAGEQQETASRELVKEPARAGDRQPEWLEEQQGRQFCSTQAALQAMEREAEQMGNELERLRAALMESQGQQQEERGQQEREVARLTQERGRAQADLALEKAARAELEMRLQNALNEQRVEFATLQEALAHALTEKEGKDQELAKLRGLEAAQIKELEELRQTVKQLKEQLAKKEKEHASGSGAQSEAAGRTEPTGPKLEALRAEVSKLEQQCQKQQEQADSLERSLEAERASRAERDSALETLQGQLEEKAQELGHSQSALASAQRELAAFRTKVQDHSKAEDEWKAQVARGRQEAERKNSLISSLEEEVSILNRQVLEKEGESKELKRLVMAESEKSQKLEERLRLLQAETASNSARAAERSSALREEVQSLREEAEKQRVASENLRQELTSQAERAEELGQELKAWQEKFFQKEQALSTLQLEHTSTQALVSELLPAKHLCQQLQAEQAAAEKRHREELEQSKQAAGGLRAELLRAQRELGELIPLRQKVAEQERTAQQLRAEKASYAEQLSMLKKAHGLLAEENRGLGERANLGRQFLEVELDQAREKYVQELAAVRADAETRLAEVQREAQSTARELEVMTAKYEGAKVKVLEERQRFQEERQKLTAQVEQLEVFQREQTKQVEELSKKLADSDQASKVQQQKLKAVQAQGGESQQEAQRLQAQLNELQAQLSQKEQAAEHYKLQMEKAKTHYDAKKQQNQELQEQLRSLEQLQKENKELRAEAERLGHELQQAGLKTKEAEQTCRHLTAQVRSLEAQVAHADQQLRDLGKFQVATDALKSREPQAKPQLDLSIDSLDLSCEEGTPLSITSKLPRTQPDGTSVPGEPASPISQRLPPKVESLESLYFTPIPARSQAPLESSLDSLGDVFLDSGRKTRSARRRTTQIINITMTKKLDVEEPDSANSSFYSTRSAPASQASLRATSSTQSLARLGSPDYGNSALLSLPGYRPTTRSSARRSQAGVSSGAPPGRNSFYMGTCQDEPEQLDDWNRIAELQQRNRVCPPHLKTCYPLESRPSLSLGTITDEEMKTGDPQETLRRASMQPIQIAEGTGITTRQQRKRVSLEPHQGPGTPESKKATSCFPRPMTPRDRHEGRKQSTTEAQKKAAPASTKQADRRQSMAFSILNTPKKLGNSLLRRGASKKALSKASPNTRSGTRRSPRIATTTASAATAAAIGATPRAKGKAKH

Compound: CC1Cc2ccccc2N1C(=O)C1CCCN(C1)C(=O)CCl (mixture of isomers) [TRIM25 ligand 11 (diastereomer mixture)]
Assay: probe-labelled cysteine peptide fold change vs DMSO (competition) (log2 fold change); higher = less target engagement (more negative = stronger competition)
Details: THP-1, incubation time: 4 h
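Further: competitive chemoproteomic profiling in live THP-1 cells with an iodoacetamide desthiobiotin (IA-DTB) probe, comparing probe-labelled peptide intensities in compound-treated cells against DMSO-treated controls.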

Target | probe-labelled cysteine peptide fold change (10 µM) | probe-labelled cysteine peptide fold change (50 µM)
OGFR_Q9NZT2_330_TCGPEHSK (UniProt Q9NZT2) | -0.0315 | 0.0148
NUDCD1_Q96RS6_111_EVFRLPTDLTACDNR (UniProt Q96RS6) | -0.0867 | 0.0344
NUP214_P35658_298_HPEIFVNFMEPCYGSCTER (UniProt P35658) | 0.294 | -0.13
NUBPL_Q8TB37_244_VHVPVLGLVQNMSVFQCPK (UniProt Q8TB37) | 0.0863 | 0.0228
NUP43_Q8NFH3_362_SLSVNTLDVLGPCLVCGTDAEAIYVTR (UniProt Q8NFH3) | -0.244 | -0.109
OGA_O60502_596_ANSSVVSVNCK (UniProt O60502) | -0.0358 | -0.308
NUP210_Q8TEM1_767_LTLAPVYTSPQLDMSCPLLQQNK (UniProt Q8TEM1) | 0.12 | -0.0136
NUP155_O75694_561_LHQEDQACATCLILACSTAACDR (UniProt O75694) | 0.102 | 0.053
OBSL1_O75147_209_LPDSGVYVCHAR (UniProt O75147) | -0.0379 | 0.157
OCRL_Q01968_64+82_CVQEAEETLLIDIASNSGCK (UniProt Q01968) | -0.138 | -0.458
NUDT12_Q9BQG2_247_QRHENCYFLHPPMPALLQLK (UniProt Q9BQG2) | -0.072 | -0.0345
NUP155_O75694_373_LYFSTCPFR (UniProt O75694) | 0.15 | 0.262
NUP214_P35658_1003_TSCKDDEAVVQAPR (UniProt P35658) | -0.0732 | -0.222
NUP43_Q8NFH3_365_SLSVNTLDVLGPCLVCGTDAEAIYVTR (UniProt Q8NFH3) | -0.394 | 0.0422
NUP98_P52948_1027_ADTSQEICSPR (UniProt P52948) | 0.0552 | 0.345
OGA_O60502_618_FEEMCGLVMGMFTR (UniProt O60502) | 0.41 | -0.204
NUP43_Q8NFH3_222_QQGNEPSQILSLTGDRVPLHCVDRHPNQQHVVATGGQDGMLSIWDVR (UniProt Q8NFH3) | -0.214 | -0.276
OCIAD2_Q56VL3_106_VSYIGVCQSK (UniProt Q56VL3) | -0.0503 | 0.116
NUP210_Q8TEM1_109_CDAIVDLIHDIQIVSTTR (UniProt Q8TEM1) | 0.056 | 0.174
NT5DC1_Q5TFE4_22_AQHFSLAACDVVGFDLDHTLCR (UniProt Q5TFE4) | 0.000262 | 0.0204
NTPCR_Q9BSD7_184_NHLLPDIVTCVQSSR (UniProt Q9BSD7) | -0.141 | -0.0525

Part of the list above, as tab-separated lines:
Target	probe-labelled cysteine peptide fold change (10 µM)	probe-labelled cysteine peptide fold change (50 µM)
NUP43_Q8NFH3_362_SLSVNTLDVLGPCLVCGTDAEAIYVTR (UniProt Q8NFH3)	-0.244	-0.109
OGA_O60502_596_ANSSVVSVNCK (UniProt O60502)	-0.0358	-0.308
NUP210_Q8TEM1_767_LTLAPVYTSPQLDMSCPLLQQNK (UniProt Q8TEM1)	0.12	-0.0136

Next records

Target | probe-labelled cysteine peptide fold change (10 µM) | probe-labelled cysteine peptide fold change (50 µM)
OGFOD3_Q6PK18_103_RFEGCTPR (UniProt Q6PK18) | -0.0988 | 0.101
NUDT14_O95848_127_EAWEECGYHLAPSDLRR (UniProt O95848) | -0.253 | -0.0711
OGFR_Q9NZT2_87_DCNGDTPNLSFYR (UniProt Q9NZT2) | -0.0357 | -0.0979
NXF1_Q9UBU9_373_LDGHELPPPIAFDVEAPTTLPPCK (UniProt Q9UBU9) | 0.0563 | -0.0988
NUP58_Q9BVL2_252_ALKDENLPPVICQDVENLQK (UniProt Q9BVL2) | -0.264 | -0.411
NT5DC1_Q5TFE4_179_ENCGIYFPEIK (UniProt Q5TFE4) | -0.13 | 0.043
ODC1_P11926_114_IIYANPCK (UniProt P11926) | 0.256 | 0.186
NUMA1_Q14980_658_KVEELQACVETAR (UniProt Q14980) | -0.0731 | -0.0752
NUP188_Q5SRE5_9_AAAAGGPCVR (UniProt Q5SRE5) | 0.0541 | 0.095
NUMA1_Q14980_80_HPSSPECLVSAQK (UniProt Q14980) | 0.106 | -0.0541
NUP85_Q9BW27_265_WQHWHEECER (UniProt Q9BW27) | 0.242 | 0.144
NUP133_Q8WUM0_1075_LEILCK (UniProt Q8WUM0) | 0.205 | 0.252
NVL_O15381_460_LPQAFDFCHLAHLTPGFVGADLMALCR (UniProt O15381) | -0.219 | -0.00784
OCIAD2_Q56VL3_130+137_HCLLTCEECK (UniProt Q56VL3) | 0.126 | -0.0386
NT5DC1_Q5TFE4_62+63_ELLNVTPEDWDFCCK (UniProt Q5TFE4) | -0.0575 | 0.045
NUP37_Q8NFH4_149_EGQEIASVSDDHTCR (UniProt Q8NFH4) | 0.172 | 0.196
NUS1_Q96E22_184_YSPEFANSNDKDDQVLNCHLAVK (UniProt Q96E22) | -0.0668 | -0.00994
NUBP1_P53384_256_ESQIFPPTTGGAELMCQDLEVPLLGR (UniProt P53384) | -0.0546 | -0.0563
NUP93_Q8N1F7_522_SSGQSAQLLSHEPGDPPCLR (UniProt Q8N1F7) | 0.0752 | -0.0115
NUP37_Q8NFH4_96_FCTSAADMK (UniProt Q8NFH4) | -0.00249 | 0.0547
